Publication PMC6300487

By UniProt entry, the sequences of proteins in these tests, tags left out. Residues count along the entry.
UniProt Q06210: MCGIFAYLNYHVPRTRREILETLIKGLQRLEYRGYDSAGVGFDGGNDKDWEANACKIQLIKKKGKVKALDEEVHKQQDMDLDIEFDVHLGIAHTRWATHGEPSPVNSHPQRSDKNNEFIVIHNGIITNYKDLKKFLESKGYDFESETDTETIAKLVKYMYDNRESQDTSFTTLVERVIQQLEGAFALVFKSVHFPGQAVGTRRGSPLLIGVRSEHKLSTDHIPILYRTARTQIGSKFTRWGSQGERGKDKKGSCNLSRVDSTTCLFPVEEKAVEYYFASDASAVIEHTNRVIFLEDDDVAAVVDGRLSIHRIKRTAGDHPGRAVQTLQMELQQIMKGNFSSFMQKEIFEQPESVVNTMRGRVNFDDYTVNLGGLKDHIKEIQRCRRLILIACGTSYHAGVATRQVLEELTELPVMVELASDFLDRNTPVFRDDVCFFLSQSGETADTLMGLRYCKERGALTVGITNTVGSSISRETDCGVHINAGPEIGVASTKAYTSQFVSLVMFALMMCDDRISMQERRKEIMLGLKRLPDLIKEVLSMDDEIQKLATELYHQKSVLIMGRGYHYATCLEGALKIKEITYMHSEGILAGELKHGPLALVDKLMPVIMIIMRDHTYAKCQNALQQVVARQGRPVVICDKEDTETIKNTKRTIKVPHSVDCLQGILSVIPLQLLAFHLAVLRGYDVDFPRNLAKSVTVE
UniProt Q7L576: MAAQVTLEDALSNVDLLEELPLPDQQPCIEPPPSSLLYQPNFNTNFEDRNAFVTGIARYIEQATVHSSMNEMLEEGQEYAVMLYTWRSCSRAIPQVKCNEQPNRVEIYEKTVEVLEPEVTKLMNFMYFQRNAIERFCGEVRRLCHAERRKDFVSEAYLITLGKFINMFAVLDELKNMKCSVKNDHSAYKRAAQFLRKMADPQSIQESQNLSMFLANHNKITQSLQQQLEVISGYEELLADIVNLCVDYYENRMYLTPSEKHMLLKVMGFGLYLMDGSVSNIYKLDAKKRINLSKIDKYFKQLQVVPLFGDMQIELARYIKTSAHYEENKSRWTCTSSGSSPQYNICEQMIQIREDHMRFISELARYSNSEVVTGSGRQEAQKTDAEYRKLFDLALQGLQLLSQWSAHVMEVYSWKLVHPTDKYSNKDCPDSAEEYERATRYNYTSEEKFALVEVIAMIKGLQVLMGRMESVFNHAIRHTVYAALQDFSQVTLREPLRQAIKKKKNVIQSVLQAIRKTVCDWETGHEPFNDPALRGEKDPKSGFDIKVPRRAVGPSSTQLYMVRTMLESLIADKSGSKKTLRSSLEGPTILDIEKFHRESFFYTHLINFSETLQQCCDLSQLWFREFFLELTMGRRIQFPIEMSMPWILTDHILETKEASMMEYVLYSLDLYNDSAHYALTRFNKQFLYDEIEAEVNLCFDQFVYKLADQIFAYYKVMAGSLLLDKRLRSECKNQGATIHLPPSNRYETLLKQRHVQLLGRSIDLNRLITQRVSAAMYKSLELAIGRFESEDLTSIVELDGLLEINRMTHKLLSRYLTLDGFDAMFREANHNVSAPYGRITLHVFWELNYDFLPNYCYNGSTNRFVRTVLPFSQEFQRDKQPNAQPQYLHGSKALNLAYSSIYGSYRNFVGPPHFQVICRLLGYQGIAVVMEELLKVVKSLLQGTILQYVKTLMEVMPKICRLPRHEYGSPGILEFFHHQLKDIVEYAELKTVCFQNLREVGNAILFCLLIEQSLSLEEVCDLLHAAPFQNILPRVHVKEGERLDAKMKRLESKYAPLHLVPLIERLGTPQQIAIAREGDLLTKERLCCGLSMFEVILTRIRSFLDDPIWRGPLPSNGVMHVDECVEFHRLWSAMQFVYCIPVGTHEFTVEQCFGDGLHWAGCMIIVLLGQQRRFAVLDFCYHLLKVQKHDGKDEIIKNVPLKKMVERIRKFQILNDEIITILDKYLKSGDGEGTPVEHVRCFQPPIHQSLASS
UniProt P40939, residues 37-763: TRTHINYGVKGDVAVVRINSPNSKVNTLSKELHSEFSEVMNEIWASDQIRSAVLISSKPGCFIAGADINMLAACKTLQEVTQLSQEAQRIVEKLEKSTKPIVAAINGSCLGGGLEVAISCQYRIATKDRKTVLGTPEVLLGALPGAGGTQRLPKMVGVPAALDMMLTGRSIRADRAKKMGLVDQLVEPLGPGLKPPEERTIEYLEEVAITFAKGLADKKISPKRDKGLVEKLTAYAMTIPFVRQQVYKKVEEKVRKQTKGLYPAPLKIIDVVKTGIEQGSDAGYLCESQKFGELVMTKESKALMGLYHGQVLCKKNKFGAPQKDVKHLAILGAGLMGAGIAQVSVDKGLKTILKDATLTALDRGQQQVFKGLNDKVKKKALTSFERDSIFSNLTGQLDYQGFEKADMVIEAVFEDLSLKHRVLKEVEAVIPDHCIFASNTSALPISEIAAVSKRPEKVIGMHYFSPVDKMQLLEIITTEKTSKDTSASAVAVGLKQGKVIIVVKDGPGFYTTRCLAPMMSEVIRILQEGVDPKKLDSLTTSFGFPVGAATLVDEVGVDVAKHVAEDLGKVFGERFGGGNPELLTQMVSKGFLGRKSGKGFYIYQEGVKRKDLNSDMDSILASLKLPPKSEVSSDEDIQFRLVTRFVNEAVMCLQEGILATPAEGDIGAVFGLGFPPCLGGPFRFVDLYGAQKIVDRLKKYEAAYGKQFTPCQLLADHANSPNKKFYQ
UniProt P55786: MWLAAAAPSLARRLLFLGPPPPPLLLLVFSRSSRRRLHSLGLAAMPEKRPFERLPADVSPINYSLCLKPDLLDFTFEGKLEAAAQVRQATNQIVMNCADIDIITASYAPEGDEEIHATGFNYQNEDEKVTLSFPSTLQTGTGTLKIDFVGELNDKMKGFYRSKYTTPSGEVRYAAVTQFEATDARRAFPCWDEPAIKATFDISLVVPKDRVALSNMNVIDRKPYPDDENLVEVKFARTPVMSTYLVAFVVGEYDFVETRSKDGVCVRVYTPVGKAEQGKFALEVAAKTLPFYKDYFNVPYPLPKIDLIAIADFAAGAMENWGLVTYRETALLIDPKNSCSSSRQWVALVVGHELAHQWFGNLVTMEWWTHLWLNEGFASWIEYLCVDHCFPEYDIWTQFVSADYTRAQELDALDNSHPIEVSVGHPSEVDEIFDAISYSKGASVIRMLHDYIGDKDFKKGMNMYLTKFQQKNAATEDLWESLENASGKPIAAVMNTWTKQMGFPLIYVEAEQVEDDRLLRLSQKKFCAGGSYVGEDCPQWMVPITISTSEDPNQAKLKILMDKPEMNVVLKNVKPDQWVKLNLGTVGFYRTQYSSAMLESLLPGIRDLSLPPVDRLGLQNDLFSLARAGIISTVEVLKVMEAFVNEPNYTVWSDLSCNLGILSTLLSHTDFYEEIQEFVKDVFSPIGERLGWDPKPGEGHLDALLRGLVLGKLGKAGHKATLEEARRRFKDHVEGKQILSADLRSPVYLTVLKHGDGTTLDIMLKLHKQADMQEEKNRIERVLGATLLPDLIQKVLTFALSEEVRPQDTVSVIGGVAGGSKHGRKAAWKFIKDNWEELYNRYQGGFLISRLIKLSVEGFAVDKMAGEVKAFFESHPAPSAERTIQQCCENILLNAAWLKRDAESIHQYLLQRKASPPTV
UniProt O00429: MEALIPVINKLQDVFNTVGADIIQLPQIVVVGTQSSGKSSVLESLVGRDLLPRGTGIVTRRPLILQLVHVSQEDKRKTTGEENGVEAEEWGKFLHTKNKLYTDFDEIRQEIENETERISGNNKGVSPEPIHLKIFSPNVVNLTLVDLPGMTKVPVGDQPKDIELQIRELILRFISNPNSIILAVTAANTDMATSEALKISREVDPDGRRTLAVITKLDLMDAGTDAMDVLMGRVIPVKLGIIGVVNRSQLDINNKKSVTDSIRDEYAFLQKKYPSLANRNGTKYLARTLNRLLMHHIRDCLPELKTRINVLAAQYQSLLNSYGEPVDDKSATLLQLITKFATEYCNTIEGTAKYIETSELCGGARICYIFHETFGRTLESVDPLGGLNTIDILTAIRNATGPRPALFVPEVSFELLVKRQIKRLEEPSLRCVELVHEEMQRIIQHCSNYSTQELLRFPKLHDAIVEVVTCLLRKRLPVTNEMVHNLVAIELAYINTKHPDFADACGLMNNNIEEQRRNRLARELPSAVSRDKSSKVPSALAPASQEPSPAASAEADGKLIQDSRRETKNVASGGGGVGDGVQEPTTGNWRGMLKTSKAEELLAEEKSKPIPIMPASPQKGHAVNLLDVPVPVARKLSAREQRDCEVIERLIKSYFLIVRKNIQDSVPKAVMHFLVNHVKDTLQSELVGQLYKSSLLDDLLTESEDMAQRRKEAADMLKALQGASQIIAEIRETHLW
UniProt O14983: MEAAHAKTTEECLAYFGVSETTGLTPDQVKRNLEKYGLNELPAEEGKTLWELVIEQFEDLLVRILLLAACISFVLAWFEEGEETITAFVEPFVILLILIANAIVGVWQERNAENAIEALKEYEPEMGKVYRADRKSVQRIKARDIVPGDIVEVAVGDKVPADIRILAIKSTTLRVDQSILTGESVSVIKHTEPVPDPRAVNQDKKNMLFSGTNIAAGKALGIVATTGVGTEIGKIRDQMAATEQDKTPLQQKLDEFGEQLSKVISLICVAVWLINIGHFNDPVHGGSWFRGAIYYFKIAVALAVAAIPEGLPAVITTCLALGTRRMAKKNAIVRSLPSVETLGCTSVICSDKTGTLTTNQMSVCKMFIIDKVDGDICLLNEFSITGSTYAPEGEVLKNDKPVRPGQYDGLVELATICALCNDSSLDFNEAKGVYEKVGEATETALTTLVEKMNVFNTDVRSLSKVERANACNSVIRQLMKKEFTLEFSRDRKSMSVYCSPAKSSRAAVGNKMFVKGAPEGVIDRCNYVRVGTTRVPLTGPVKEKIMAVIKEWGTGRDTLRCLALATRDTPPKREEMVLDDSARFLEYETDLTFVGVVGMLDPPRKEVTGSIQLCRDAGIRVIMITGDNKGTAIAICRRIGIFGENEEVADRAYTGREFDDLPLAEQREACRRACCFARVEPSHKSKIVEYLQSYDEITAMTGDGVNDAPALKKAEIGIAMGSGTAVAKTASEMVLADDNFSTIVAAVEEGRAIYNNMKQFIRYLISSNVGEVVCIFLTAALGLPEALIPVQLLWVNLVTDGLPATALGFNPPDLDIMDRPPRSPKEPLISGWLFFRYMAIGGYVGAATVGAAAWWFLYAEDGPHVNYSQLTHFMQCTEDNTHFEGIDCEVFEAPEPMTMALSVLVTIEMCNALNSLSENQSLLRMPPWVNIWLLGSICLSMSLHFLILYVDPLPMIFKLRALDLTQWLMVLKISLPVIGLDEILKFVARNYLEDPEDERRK
UniProt Q13148: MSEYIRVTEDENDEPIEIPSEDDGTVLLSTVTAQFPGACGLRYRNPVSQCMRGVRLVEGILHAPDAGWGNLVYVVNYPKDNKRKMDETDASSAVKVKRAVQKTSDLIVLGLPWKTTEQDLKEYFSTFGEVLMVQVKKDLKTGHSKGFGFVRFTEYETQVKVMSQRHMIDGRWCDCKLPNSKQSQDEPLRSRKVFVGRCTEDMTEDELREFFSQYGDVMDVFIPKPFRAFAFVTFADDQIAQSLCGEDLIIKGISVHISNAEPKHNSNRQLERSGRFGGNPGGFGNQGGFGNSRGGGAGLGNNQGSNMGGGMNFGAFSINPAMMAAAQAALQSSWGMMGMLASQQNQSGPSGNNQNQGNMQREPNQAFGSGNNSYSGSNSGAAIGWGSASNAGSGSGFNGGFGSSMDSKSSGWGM
UniProt O14641: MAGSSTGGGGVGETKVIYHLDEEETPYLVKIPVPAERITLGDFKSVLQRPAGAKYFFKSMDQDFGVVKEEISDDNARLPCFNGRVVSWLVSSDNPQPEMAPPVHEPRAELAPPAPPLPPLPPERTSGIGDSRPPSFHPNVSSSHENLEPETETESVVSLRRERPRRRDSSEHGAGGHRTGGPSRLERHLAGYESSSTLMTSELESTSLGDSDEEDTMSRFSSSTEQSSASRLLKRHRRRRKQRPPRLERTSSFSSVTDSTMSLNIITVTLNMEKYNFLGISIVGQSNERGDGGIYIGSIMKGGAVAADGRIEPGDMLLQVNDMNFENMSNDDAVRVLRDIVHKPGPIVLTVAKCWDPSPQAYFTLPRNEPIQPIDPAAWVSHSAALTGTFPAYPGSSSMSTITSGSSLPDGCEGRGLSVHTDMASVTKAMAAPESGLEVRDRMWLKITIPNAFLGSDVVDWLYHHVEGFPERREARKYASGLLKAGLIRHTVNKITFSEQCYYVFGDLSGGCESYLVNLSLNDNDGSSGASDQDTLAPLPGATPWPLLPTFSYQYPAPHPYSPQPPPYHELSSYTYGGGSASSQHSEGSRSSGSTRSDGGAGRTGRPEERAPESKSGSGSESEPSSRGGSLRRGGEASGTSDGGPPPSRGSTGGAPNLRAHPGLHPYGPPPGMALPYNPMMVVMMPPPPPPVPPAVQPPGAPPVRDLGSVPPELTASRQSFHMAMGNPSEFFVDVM

B1: Valyl-tRNA synthetase (VARS2) (protein, UniProt Q5ST30 27-1063)
chain: SVSTQSEPHGSPISRRNREAKQKRLREKQATLEAEIAGESKSPAESIKAWRPKELVLYEIPTKPGEKKDVSGPLPPAYSPRYVEAAWYPWWVREGFFKPEYQARLPQATGETFSMCIPPPNVTGSLHIGHALTVAIQDALVRWHRMRGDQVLWVPGSDHAGIATQAVVEKQLWKERGVRRHELSREAFLREVWQWKEAKGGEICEQLRALGASLDWDRECFTMDVGSSVAVTEAFVRLYKAGLLYRNHQLVNWSCALRSAISDIEVENRPLPGHTQLRLPGCPTPVSFGLLFSVAFPVDGEPDAEVVVGTTRPETLPGDVAVAVHPDDSRYTHLHGRQLRHPLMGQPLPLITDYAVQPHVGTGAVKVTPAHSPADAEMGARHGLSPLNVIAEDGTMTSLCGDWLQGLHRFVAREKIMSVLSEWGLFRGLQNHPMVLPICSRSGDVIEYLLKNQWFVRCQEMGARAAKAVESGALELSPSFHQKNWQHWFSHIGDWCVSRQLWWGHQIPAYLVVEDHAQGEEDCWVVGRSEAEAREVAAELTGRPGAELTLERDPDVLDTWFSSALFPFSALGWPQETPDLARFYPLSLLETGSDLLLFWVGRMVMLGTQLTGQLPFSKVLLHPMVRDRQGRKMSKSLGNVLDPRDIISGVEMQVLQEKLRSGNLDPAELAIVAAAQKKDFPHGIPECGTDALRFTLCSHGVQAGDLHLSVSEVQSCRHFCNKIWNALRFILNALGEKFVPQPAEELSPSSPMDAWILSRLALAAQECERGFLTRELSLVTHALHHFWLHNLCDVYLEAVKPVLWHSPRPLGPPQVLFSCADLGLRLLAPLMPFLAEELWQRLPPRPGCPPAPSISVAPYPSACSLEHWRQPELERRFSRVQEVVQVLRALRATYQLTKARPRVLLQSSEPGDQGLFEAFLEPLGTLGYCGAVGLLPPGAAAPSGWAQAPLSDTAQVYMELQGLVDPQIQLPLLAARRYKLQKQLDSLTARTPSEGEAGTQRQQKLSSLQLELSKLDKAASHLRQLMDEPPAPGSPEL
B2: Histone PARylation Factor 1 (protein, UniProt Q9NWY4 1-346)
chain: MVGGGGKRRPGGEGPQCEKTTDVKKSKFCEADVSSDLRKEVENHYKLSLPEDFYHFWKFCEELDPEKPSDSLSASLGLQLVGPYDILAGKHKTKKKSTGLNFNLHWRFYYDPPEFQTIIIGDNKTQYHMGYFRDSPDEFPVYVGINEAKKNCIIVPNGDNVFAAVKLFLTKKLREITDKKKINLLKNIDEKLTEAARELGYSLEQRTVKMKQRDKKVVTKTFHGAGLVVPVDKNDVGYRELPETDADLKRICKTIVEAASDEERLKAFAPIQEMMTFVQFANDECDYGMGLELGMDLFCYGSHYFHKVAGQLLPLAYNLLKRNLFAEIIEEHLANRSQENIDQLAA
B3: Secretory Carrier Membrane Protein 3 (protein, UniProt O14828 1-347)
chain: MAQSRDGGNPFAEPSELDNPFQDPAVIQHRPSRQYATLDVYNPFETREPPPAYEPPAPAPLPPPSAPSLQPSRKLSPTEPKNYGSYSTQASAAAATAELLKKQEELNRKAEELDRRERELQHAALGGTATRQNNWPPLPSFCPVQPCFFQDISMEIPQEFQKTVSTMYYLWMCSTLALLLNFLACLASFCVETNNGAGFGLSILWVLLFTPCSFVCWYRPMYKAFRSDSSFNFFVFFFIFFVQDVLFVLQAIGIPGWGFSGWISALVVPKGNTAVSVLMLLVALLFTGIAVLGIVMLKRIHSLYRRTGASFQKAQQEFAAGVFSNPAVRTAAANAAAGAAENAFRAP
B4: DAZ Associated Protein 1 (protein, UniProt Q96EP5 1-407)
chain: MNNSGADEIGKLFVGGLDWSTTQETLRSYFSQYGEVVDCVIMKDKTTNQSRGFGFVKFKDPNCVGTVLASRPHTLDGRNIDPKPCTPRGMQPERTRPKEGWQKGPRSDNSKSNKIFVGGIPHNCGETELREYFKKFGVVTEVVMIYDAEKQRPRGFGFITFEDEQSVDQAVNMHFHDIMGKKVEVKRAEPRDSKSQAPGQPGASQWGSRVVPNAANGWAGQPPPTWQQGYGPQGMWVPAGQAIGGYGPPPAGRGAPPPPPPFTSYIVSTPPGGFPPPQGFPQGYGAPPQFSFGYGPPPPPPDQFAPPGVPPPPATPGAAPLAFPPPPSQAAPDMSKPPTAQPDFPYGQYAGYGQDLSGFGQGFSDPSQQPPSYGGPSVPGSGGPPAGGSGFGRGQNHNVQGFHPYRR
B5: Spartin (protein, UniProt Q8N0X7 1-666)
chain: MEQEPQNGEPAEIKIIREAYKKAFLFVNKGLNTDELGQKEEAKNYYKQGIGHLLRGISISSKESEHTGPGWESARQMQQKMKETLQNVRTRLEILEKGLATSLQNDLQEVPKLYPEFPPKDMCEKLPEPQSFSSAPQHAEVNGNTSTPSAGAVAAPASLSLPSQSCPAEAPPAYTPQAAEGHYTVSYGTDSGEFSSVGEEFYRNHSQPPPLETLGLDADELILIPNGVQIFFVNPAGEVSAPSYPGYLRIVRFLDNSLDTVLNRPPGFLQVCDWLYPLVPDRSPVLKCTAGAYMFPDTMLQAAGCFVGVVLSSELPEDDRELFEDLLRQMSDLRLQANWNRAEEENEFQIPGRTRPSSDQLKEASGTDVKQLDQGNKDVRHKGKRGKRAKDTSSEEVNLSHIVPCEPVPEEKPKELPEWSEKVAHNILSGASWVSWGLVKGAEITGKAIQKGASKLRERIQPEEKPVEVSPAVTKGLYIAKQATGGAAKVSQFLVDGVCTVANCVGKELAPHVKKHGSKLVPESLKKDKDGKSPLDGAMVVAASSVQGFSTVWQGLECAAKCIVNNVSAETVQTVRYKYGYNAGEATHHAVDSAVNVGVTAYNINNIGIKAMVKKTATQTGHTLLEDYQIVDNSQRENQEGAANVNVRGEKDEQTKEVKEAKKKDK
B6: Peflin (protein, UniProt Q9UBV8 1-284)
chain: MASYPYRQGCPGAAGQAPGAPPGSYYPGPPNSGGQYGSGLPPGGGYGGPAPGGPYGPPAGGGPYGHPNPGMFPSGTPGGPYGGAAPGGPYGQPPPSSYGAQQPGLYGQGGAPPNVDPEAYSWFQSVDSDHSGYISMKELKQALVNCNWSSFNDETCLMMINMFDKTKSGRIDVYGFSALWKFIQQWKNLFQQYDRDRSGSISYTELQQALSQMGYNLSPQFTQLLVSRYCPRSANPAMQLDRFIQVCTQLQVLTEAFREKDTAVQGNIRLSFEDFVTMTASRML
B7: TATA element modulatory factor 1 (protein, UniProt P82094 1-1093)
chain: MSWFNASQLSSFAKQALSQAQKSIDRVLDIQEEEPSIWAETIPYGEPGISSPVSGGWDTSTWGLKSNTEPQSPPIASPKAITKPVRRTVVDESENFFSAFLSPTDVQTIQKSPVVSKPPAKSQRPEEEVKSSLHESLHIGQSRTPETTESQVKDSSLCVSGETLAAGTSSPKTEGKHEETVNKESDMKVPTVSLKVSESVIDVKTTMESISNTSTQSLTAETKDIALEPKEQKHEDRQSNTPSPPVSTFSSGTSTTSDIEVLDHESVISESSASSRQETTDSKSSLHLMQTSFQLLSASACPEYNRLDDFQKLTESCCSSDAFERIDSFSVQSLDSRSVSEINSDDELSGKGYALVPIIVNSSTPKSKTVESAEGKSEEVNETLVIPTEEAEMEESGRSATPVNCEQPDILVSSTPINEGQTVLDKVAEQCEPAESQPEALSEKEDVCKTVEFLNEKLEKREAQLLSLSKEKALLEEAFDNLKDEMFRVKEESSSISSLKDEFTQRIAEAEKKVQLACKERDAAKKEIKNIKEELATRLNSSETADLLKEKDEQIRGLMEEGEKLSKQQLHNSNIIKKLRAKDKENENMVAKLNKKVKELEEELQHLKQVLDGKEEVEKQHRENIKKLNSMVERQEKDLGRLQVDMDELEEKNRSIQAALDSAYKELTDLHKANAAKDSEAQEAALSREMKAKEELSAALEKAQEEARQQQETLAIQVGDLRLALQRTEQAAARKEDYLRHEIGELQQRLQEAENRNQELSQSVSSTTRPLLRQIENLQATLGSQTSSWEKLEKNLSDRLGESQTLLAAAVERERAATEELLANKIQMSSMESQNSLLRQENSRFQAQLESEKNRLCKLEDENNRYQVELENLKDEYVRTLEETRKEKTLLNSQLEMERMKVEQERKKAIFTQETIKEKERKPFSVSSTPTMSRSSSISGVDMAGLQTSFLSQDESHDHSFGPMPISANGSNLYDAVRMGAGSSIIENLQSQLKLREGEITHLQLEIGNLEKTRSIMAEELVKLTNQNDELEEKVKEIPKLRTQLRDLDQRYNTILQMYGEKAEEAEELRLDLEDVKNMYKTQIDELLRQSLS
B8: WW domain-binding protein 2 (protein, UniProt Q969T9 1-261)
chain: MALNKNHSEGGGVIVNNTESILMSYDHVELTFNDMKNVPEAFKGTKKGTVYLTPYRVIFLSKGKDAMQSFMMPFYLMKDCEIKQPVFGANYIKGTVKAEAGGGWEGSASYKLTFTAGGAIEFGQRMLQVASQASRGEVPSGAYGYSYMPSGAYVYPPPVANGMYPCPPGYPYPPPPPEFYPGPPMMDGAMGYVQPPPPPYPGPMEPPVSGPDVPSTPAAEAKAAEAAASAYYNPGNPHNVYMPTSQPPPPPYYPPEDKKTQ

Each molecule was assayed against T1, SFB-tagged WWOX (WW domain-containing oxidoreductase) (human) (UniProt Q9NZC7) (assay: affinity purification with mass spectrometry; tandem affinity purification from lysate (NETN buffer) of HEK293T cells stably expressing C-terminally SFB-tagged WWOX: streptavidin beads, elution with 2 mg/ml biotin, then S protein beads; LC-MS/MS; two replicates; hits filtered by MUSE interaction score and CRAPome frequency).
T1 sequence: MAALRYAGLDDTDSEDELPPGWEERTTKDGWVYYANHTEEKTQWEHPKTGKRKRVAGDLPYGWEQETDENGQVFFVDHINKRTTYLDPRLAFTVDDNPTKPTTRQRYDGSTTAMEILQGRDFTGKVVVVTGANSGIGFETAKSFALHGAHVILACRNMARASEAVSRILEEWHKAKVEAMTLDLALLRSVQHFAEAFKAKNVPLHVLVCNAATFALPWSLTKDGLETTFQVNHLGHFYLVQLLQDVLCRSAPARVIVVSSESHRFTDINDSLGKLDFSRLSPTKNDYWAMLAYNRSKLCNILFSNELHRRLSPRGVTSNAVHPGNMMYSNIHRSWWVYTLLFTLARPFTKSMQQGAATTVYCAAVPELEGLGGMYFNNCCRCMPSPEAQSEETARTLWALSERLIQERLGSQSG

Row | Molecule | binding
1 | Glutamine-fructose-6-phosphate aminotransferase 1 (from UniProt Q06210 1-699) | binds
2 | Cytoplasmic FMR1-interacting protein 1 (from UniProt Q7L576 1-1253) | binds
3 | ALDH3A2 (from UniProt P51648 1-485) | binds
4 | Trifunctional enzyme subunit alpha, mitochondrial (from UniProt P40939 37-763) | binds
5 | Puromycin-Sensitive Aminopeptidase (from UniProt P55786 1-919) | binds
6 | Ubiquitin carboxyl-terminal hydrolase 24 (from UniProt Q9UPU5 1-2620) | binds
7 | Stress Induced Phosphoprotein 1 (from UniProt P31948 1-543) | binds
8 | Dynamin 1 Like protein (from UniProt O00429 1-736) | binds
9 | Endoplasmic reticulum calcium ATPase 1 (from UniProt O14983 1-1001) | binds
10 | pyruvate dehydrogenase kinase 3 (human (endogenous in HEK293T)) | binds
11 | TAR DNA-binding protein 43 (from UniProt Q13148 1-414) | binds
12 | Disheveled 2 (from UniProt O14641 1-736) | binds
13 | B1 | binds
14 | B2 | binds
15 | B3 | binds
16 | B4 | binds
17 | B5 | binds
18 | B6 | binds
19 | B7 | binds
20 | B8 | binds

These are yes or no findings as the source states them, for the method shown. In cells and extracts the contact can be indirect. A yes stands for co-enrichment or nearness to the bait. Other partners may have been found. Where a sequence is shown, tags or fusion partners need not be part of it.
